From patent publication CN113234160A
Results are given in words; binding and its absence hold for the method and conditions named. Some binding calls cover weakened binding; strength is not graded here.

Protein sequences, listed by entry. Tags and fused reporters are not part of them. Lines headed by an entry give the natural chain unless they say otherwise; changes in a name come on top. Residues count along the entry.
UniProt Q15116: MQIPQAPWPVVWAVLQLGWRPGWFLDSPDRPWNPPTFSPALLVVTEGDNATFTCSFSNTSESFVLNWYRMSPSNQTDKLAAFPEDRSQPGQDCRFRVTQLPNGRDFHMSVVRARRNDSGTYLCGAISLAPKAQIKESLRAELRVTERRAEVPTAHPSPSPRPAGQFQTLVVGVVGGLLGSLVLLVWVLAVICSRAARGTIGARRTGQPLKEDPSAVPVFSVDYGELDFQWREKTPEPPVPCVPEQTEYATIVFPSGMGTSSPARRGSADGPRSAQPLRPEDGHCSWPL
人PD-1抗原 on Jurkat/PD-1 cells: residues 25-288 of Q15116
人PD-1抗原 (ACRO, Cat.PD-1-H5221): residues 25-167 of Q15116

Tests used:
[1] = biological target: 人PD-1抗原 (ACRO, Cat.PD-1-H5221) (human) (UniProt Q15116); assay: indirect ELISA, human PD-1 coated
[2] = biological target: 人PD-1抗原 on Jurkat/PD-1 cells (human) (UniProt Q15116); assay: indirect flow cytometry on Jurkat/PD-1 cells
[3] = biological target: 人PD-1抗原 (ACRO, Cat.PD-1-H5221) (human) (UniProt Q15116); assay: summary of flow cytometry and ELISA, against the mouse parent mp148

binding [1]: binds | binding [2]: binds | binding [3]: binds
B1: hmp148 (antibody, V domains shown)
VH: EVQLVESGGGLVKPGGSLRLSCAASGFTFSSYDMSWVRQAPGKRLEWVATISGGGSYTYYPDSVKGRFTISRDNAKNSLYLQMNSLRTEDTAVYYCASPYEGYFDVWGQGTTVTVSS
VL: DIQMTQSPSSLSVTPGEKVTITCRASQSISNNIHWYQQKPGQSPKLLIKYASQSISGIPSRFSGSGSGTDFTLTINSLEAEDAATYFCQQSNSWPHTFGGGTKVEIK
